The text below walks through data of PubChem BioAssay AID1487 (National Center for Advancing Translational Sciences (NCATS), 2009).

The nature of this assay: qHTS Assay for Modulators of Lamin A Splicing. The note with it: HeLa LMNA splicing GFP/RFP minigene ratio, 48 h. Summed up: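 S3 HeLa stable clones carrying a lamin A-EGFP splicing minigene plus DsRed2 were seeded at 600 cells/well in Opti-MEM with 2% FBS, pin-dosed and incubated 48 h at 37°C. Acumen cytometry (488 nm) gave the GFP/RFP total-intensity ratio.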
[1] abbreviates: measured here: RFP viability control channel.
Where [2] appears, read: measured here: GFP splicing reporter channel.

The other results are listed elsewhere or left out. These are further read-outs of the screen, such as a control signal, another cell line or another target. No call is given for them. The list favours compounds with an active or inconclusive main result. Potencies come from curve fits of mixed quality, noted in brackets.

For `Cc1cc(/C=C2/SC(=O)NC2=O)c(C)n1-c1ccc(N2CCOCC2)cc1`, the AC50 under setting [1] was 8.91 µM [rising, partial curve, poor fit].

`C=CCSc1nc2c(c(=N)n1CC=C)C1CCCC1S2` (configuration not stated): the half-maximal activity concentration (AC50) was 14.1 µM [rising, partial curve, poor fit] under setting [2] and 25.1 µM [rising, single point] under setting [1].

Regarding `CCN(CC)CCCn1c(C)cc2c(c1=O)C(c1cccc(Cl)c1)C(C#N)=C(N)O2` (configuration not stated), the AC50 runs as follows: under setting [2], 11.2 µM [rising, single point]; under setting [1], 7.08 µM [rising, single point].

On to `Cc1cc([N+](=O)[O-])ccc1NC(=O)CN1C2CCC1CC(NC(=O)NC13CC4CC(CC(C4)C1)C3)C2` (configuration not stated), for which the concentration at half-maximal activity (AC50) runs as follows: under setting [2], 10 µM [falling, partial curve]; under setting [1], 8.91 µM [falling, partial curve, poor fit].

For the compound `CCn1c2ccccc2c2cc(CC(N)=O)ccc21`, under setting [1], the AC50 was 35.5 µM [falling, single point].

Take `O=C(NCc1ccco1)c1ccccc1NS(=O)(=O)c1ccc(Cl)s1`: the AC50 under setting [1] is 15.8 µM [rising, single point].

In the case of `CC1CCCCN1S(=O)(=O)c1ccc(C(=O)Nc2sc3c(c2C(N)=O)CC(C)(C)NC3(C)C)cc1` (configuration not stated), the AC50 under setting [1] is 15.8 µM [rising, single point].

In the case of `O=C(c1cccc(C(F)(F)F)c1)C1CCCN(Cc2cccn2-c2ncccn2)C1` (configuration not stated), the AC50 under setting [1] was 35.5 µM [falling, single point].

`N#C/C(C(N)=O)=c1/ccc2c(c1)N1C3=C(CCCC3)CC3CCCCC31N=2` (configuration not stated): the concentration at half-maximal activity (AC50) by setting is: under setting [2], 35.5 µM [falling, single point]; under setting [1], 35.5 µM [falling, single point].

Consider `COc1ccc(/C=N/NC(=O)c2ccncc2)cc1CN1CCN(c2ccc(F)cc2)CC1`, for which the concentration at half-maximal activity (AC50) under setting [2] was 3.16 µM [rising, single point].

For `C[C@]1(C(=O)NCc2cc(F)cc(C(F)(F)F)c2)C=C[C@@H](Cc2ccccc2)N1C(=O)c1ccccc1`, the concentration at half-maximal activity (AC50) runs as follows: under setting [2], 10 µM [rising, partial curve]; under setting [1], 11.2 µM [rising, partial curve].

Consider `Clc1ccc(-c2noc(CN3CCN(c4ccccc4)CC3)n2)cc1`, for which the AC50 under setting [1] was 35.5 µM [rising, single point].

Regarding `N#CC(C#N)=C1C=CC=CN1/C(=C\c1ccccc1Cl)C(=O)c1ccccc1`, the half-maximal activity concentration (AC50) under setting [2] was 7.94 µM [rising, partial curve, poor fit].

For the compound `COc1cc(/C=N/N(C)c2ccccc2)ccc1O`, the AC50 is, setting by setting: under setting [2], 28.2 µM [falling, single point]; under setting [1], 35.5 µM [falling, single point].

On to `COc1cc(CN2CCN(c3cccc(C)c3C)CC2)cc([N+](=O)[O-])c1O`, for which the AC50 under setting [1] is 7.08 µM [rising, full curve, poor fit].

In the case of `COc1ccccc1NCC(O)COc1ccc(C(C)(C)C)cc1` (configuration not stated), the AC50 under setting [2] is 35.5 µM [falling, single point] and the AC50 under setting [1] is 28.2 µM [falling, partial curve].

Take `CCOC(=O)C1CCCN(CC(=O)/C=C2/N(C)c3ccccc3C2(C)C)C1` (configuration not stated): under setting [1], the AC50 is 22.4 µM [rising, single point].

Turning to `Cc1cc(NCCN2CCOCC2)c2ccc3ccccc3c2n1`, the AC50 under setting [2] is 11.2 µM [falling, partial curve].

`O=C(NCCc1c[nH]c2ccccc12)C(=O)NCC(c1cccnc1)N1CCN(c2ccccc2)CC1` (configuration not stated): under setting [1], the half-maximal activity concentration (AC50) is 3.55 µM [rising, full curve].

For `Cc1nn(C)c(C(=O)NNC(=S)NCC(C)C)c1Cl`, the AC50 under setting [2] was 11.2 µM [rising, single point] and the AC50 under setting [1] is 12.6 µM [rising, single point].

On to `Cc1ccc(C(=O)N2CCN=C2SCc2ccc([N+](=O)[O-])cc2)cc1C`, for which the half-maximal activity concentration (AC50) by setting is: under setting [2], 35.5 µM [rising, partial curve, poor fit]; under setting [1], 35.5 µM [rising, single point].

As to `N#Cc1c(NC(=O)CSc2ncnc3c2cnn3-c2ccccc2Cl)sc2c1CCCC2`, the half-maximal activity concentration (AC50) under setting [1] is 10 µM [rising, partial curve, poor fit].

Take `CC(C)C(=O)Nc1cccc(S(=O)(=O)c2cccc(NC(=O)C(C)C)c2)c1`: under setting [1], the AC50 was 12.6 µM [rising, partial curve].

For `CCc1ccc(-c2[nH]c3c(c2-c2sc(C)c(C(=O)OC)c2O)c(=O)[nH]c(=O)n3C)cc1`, the AC50 reads like this: under setting [2], 35.5 µM [falling, single point]; under setting [1], 3.55 µM [falling, partial curve].

In the case of `CCCCN(CCCC)S(=O)(=O)c1ccc2oc(C(=O)NCc3ccc(C)cc3)c(C)c2c1`, the half-maximal activity concentration (AC50) under setting [1] was 22.4 µM [rising, single point].

On to `N=c1c(C(=O)NCc2ccco2)cc2c(=O)n3ccccc3nc2n1Cc1ccc(Cl)cc1`, for which the AC50 under setting [1] is 35.5 µM [falling, single point].

As for `CCCCn1ccc(=O)c2c(C(F)(F)F)nccc21`, the AC50 reads like this: under setting [2], 8.91 µM [rising, partial curve, poor fit]; under setting [1], 17.8 µM [rising, single point].

For the compound `CCCOCCOC(=O)c1[nH]c2c(c1C)C(=O)CC(c1cc(OC)ccc1OC)C2` (configuration not stated), the concentration at half-maximal activity (AC50) under setting [1] was 4.47 µM [rising, full curve].

For `O=C(Nc1nnc(-c2ccccc2)o1)c1ccc(Cl)cc1`, the AC50 under setting [1] is 5.62 µM [rising, single point].

With `COc1cc(OC)cc(C(=O)N[C@H](C(=O)Nc2nc(-c3cc(OC)ccc3OC)cs2)C(C)C)c1`, the half-maximal activity concentration (AC50) was 22.4 µM [falling, partial curve, poor fit] under setting [2] and 10 µM [falling, partial curve] under setting [1].

Turning to `COC(=O)C1=C(C)N=C2SCCC(=O)N2C1c1cc(Br)ccc1OC` (configuration not stated), the half-maximal activity concentration (AC50) under setting [1] is 12.6 µM [rising, partial curve].

On to `CCCn1ccc2c(OCC(=O)Nc3ccccc3OCC)cccc2c1=O`, for which, under setting [2], the AC50 is 0.562 µM [falling, full curve].

For `CC1CCc2cc(F)cc3c(O)c(C(=O)NCC4CCCO4)c(=O)n1c23` (configuration not stated), under setting [1], the AC50 was 6.31 µM [rising, single point].

In the case of `CCc1ccc(/C=N/NC(=O)c2cc(-c3ccncc3)nc3ccccc23)s1`, the half-maximal activity concentration (AC50) is 1.78 µM [rising, full curve] under setting [2] and 1.78 µM [rising, full curve] under setting [1].

A word on the AC50: it is the concentration giving half of the maximal activity seen.
